± gives the standard deviation of the averaged measurements. Values are relative to the signal before dosing, not to a vehicle control; the signal also falls without drug.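 Fibroblast labels denote human fibroblasts, mainly primary ones from uterus (C12385, HUF), lung (H6013), bone (Hs27A), adrenal (HADF) and skin (WS1), plus mammary HMF and breast cancer-associated Hs343T. Cancer cells are basal-like or mesenchymal-like triple-negative breast cancer lines. A hit is a response shift exceeding 3x replicate standard deviation. The tissue of the other fibroblasts is not given here.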
Test system: BT20
Test: relative JC-1 red fluorescence (viability) vs pre-drug, coculture with fibroblast (fraction); higher = more viable cancer cells
Method: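 JC-1 labelled TNBC cells cocultured 1:1 (1,500 cells each) with CellTrace Violet stained primary or stromal fibroblasts in 384-well plates in FluoroBrite medium, treated with one of 42 anticancer drugs at 0.1, 1, 10 or 100 uM. JC-1 red fluorescence (mitochondrial integrity in cancer cells only) was read by plate reader every 8 h for 72 h. Values are normalised to each well's pre-drug value. The stock of one drug was tenfold lower, so its dose labels may be too high.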

COc1cc([C@@H]2c3cc4c(cc3[C@@H](O[C@@H]3O[C@@H]5CO[C@@H](c6cccs6)O[C@H]5[C@H](O)[C@H]3O)[C@H]3COC(=O)[C@H]23)OCO4)cc(OC)c1O [Teniposide]
relative JC-1 red fluorescence
Settings	8 h	16 h	24 h	32 h	40 h	48 h	56 h	64 h	72 h
10 µM, coculture fibroblast: C12385	0.876 ± 0.028	0.819 ± 0.013	0.781 ± 0.022	0.72 ± 0.069	0.673 ± 0.066	0.664 ± 0.087	0.649 ± 0.095	0.646 ± 0.096	0.638 ± 0.1
10 µM, coculture fibroblast: H6013	0.955 ± 0.032	0.885 ± 0.01	0.8 ± 0.0086	0.698 ± 0.031	0.647 ± 0.059	0.613 ± 0.065	0.603 ± 0.062	0.577 ± 0.045	0.562 ± 0.052
10 µM, coculture fibroblast: H6019	0.8716 ± 0.0034	0.813 ± 0.035	0.758 ± 0.12	0.654 ± 0.11	0.607 ± 0.13	0.609 ± 0.14	0.597 ± 0.14	0.599 ± 0.14	0.593 ± 0.14
10 µM, coculture fibroblast: H6076	0.983 ± 0.016	0.8944 ± 0.0041	0.79 ± 0.056	0.753 ± 0.094	0.722 ± 0.14	0.701 ± 0.16	0.716 ± 0.18	0.722 ± 0.18	0.7 ± 0.19
10 µM, coculture fibroblast: H6231	0.745 ± 0.054	0.905 ± 0.026	0.756 ± 0.044	0.6732 ± 0.0049	0.6315 ± 0.0037	0.581 ± 0.014	0.539 ± 0.019	0.526 ± 0.034	0.511 ± 0.031
10 µM, coculture fibroblast: HADF	0.844 ± 0.18	0.948 ± 0.017	0.883 ± 0.043	0.781 ± 0.034	0.744 ± 0.076	0.709 ± 0.084	0.719 ± 0.097	0.717 ± 0.1	0.694 ± 0.089
10 µM, coculture fibroblast: HCFa	0.964 ± 0.02	0.9328 ± 0.0044	0.898 ± 0.018	0.815 ± 0.033	0.784 ± 0.024	0.757 ± 0.036	0.765 ± 0.067	0.77 ± 0.092	0.76 ± 0.12
10 µM, coculture fibroblast: HCPF	0.935 ± 0.076	0.936 ± 0.031	0.854 ± 0.034	0.786 ± 0.039	0.733 ± 0.046	0.687 ± 0.029	0.662 ± 0.026	0.663 ± 0.048	0.631 ± 0.045
10 µM, coculture fibroblast: HHSteC	0.918 ± 0.015	0.8589 ± 0.00092	0.827 ± 0.013	0.726 ± 0.018	0.687 ± 0.035	0.652 ± 0.045	0.644 ± 0.055	0.634 ± 0.053	0.611 ± 0.059
10 µM, coculture fibroblast: HMF	0.817 ± 0.16	0.93 ± 0.03	0.813 ± 0.029	0.728 ± 0.066	0.685 ± 0.07	0.638 ± 0.08	0.621 ± 0.068	0.595 ± 0.08	0.571 ± 0.099
10 µM, coculture fibroblast: HPFa	0.9387 ± 0.0058	0.911 ± 0.011	0.908 ± 0.045	0.799 ± 0.04	0.793 ± 0.04	0.759 ± 0.038	0.759 ± 0.021	0.743 ± 0.029	0.709 ± 0.032
10 µM, coculture fibroblast: HUF	0.892 ± 0.014	0.8306 ± 0.002	0.763 ± 0.03	0.675 ± 0.068	0.637 ± 0.075	0.608 ± 0.097	0.608 ± 0.1	0.603 ± 0.11	0.596 ± 0.11
10 µM, coculture fibroblast: Hs5	0.872 ± 0.14	0.936 ± 0.05	0.88998 ± 0.00017	0.8683 ± 0.0072	0.835 ± 0.029	0.817 ± 0.045	0.827 ± 0.046	0.813 ± 0.034	0.801 ± 0.025
10 µM, coculture fibroblast: Hs27A	0.898 ± 0.021	0.849 ± 0.01	0.809 ± 0.14	0.885 ± 0.075	0.849 ± 0.094	0.843 ± 0.1	0.852 ± 0.1	0.84 ± 0.098	0.809 ± 0.093
10 µM, coculture fibroblast: Hs343T	0.832 ± 0.15	0.916 ± 0.055	0.7514 ± 0.0011	0.655 ± 0.045	0.593 ± 0.098	0.559 ± 0.12	0.531 ± 0.12	0.523 ± 0.13	0.501 ± 0.13
10 µM, coculture fibroblast: WS1	0.883 ± 0.018	0.822 ± 0.018	0.8 ± 0.015	0.724 ± 0.034	0.675 ± 0.059	0.658 ± 0.065	0.654 ± 0.073	0.648 ± 0.082	0.65 ± 0.085
100 µM, coculture fibroblast: C12385	0.9152 ± 0.0072	0.858 ± 0.011	0.849 ± 0.052	0.843 ± 0.11	0.839 ± 0.12	0.862 ± 0.13	0.855 ± 0.15	0.851 ± 0.19	0.843 ± 0.19
100 µM, coculture fibroblast: H6013	0.9826 ± 0.0034	0.93 ± 0.05	0.847 ± 0.14	0.853 ± 0.1	0.825 ± 0.093	0.909 ± 0.021	0.851 ± 0.067	0.792 ± 0.13	0.821 ± 0.07
100 µM, coculture fibroblast: H6019	0.911 ± 0.012	0.863 ± 0.042	0.8937 ± 0.005	0.866 ± 0.016	0.884 ± 0.013	0.918 ± 0.055	0.911 ± 0.12	0.784 ± 0.046	0.864 ± 0.071
100 µM, coculture fibroblast: H6076	0.985 ± 0.015	0.93 ± 0.017	0.874 ± 0.039	0.835 ± 0.05	0.833 ± 0.067	0.829 ± 0.072	0.861 ± 0.076	0.898 ± 0.049	0.89 ± 0.071
100 µM, coculture fibroblast: H6231	0.853 ± 0.15	0.923 ± 0.018	0.837 ± 0.014	0.779 ± 0.022	0.801 ± 0.025	0.84 ± 0.028	0.874 ± 0.03	0.858 ± 0.026	0.849 ± 0.04
100 µM, coculture fibroblast: HADF	0.785 ± 0.029	0.747 ± 0.02	0.774 ± 0.053	0.864 ± 0.14	0.922 ± 0.095	0.905 ± 0.079	0.846 ± 0.19	0.899 ± 0.03	0.95 ± 0.047
100 µM, coculture fibroblast: HCFa	0.929 ± 0.058	0.856 ± 0.16	0.869 ± 0.16	0.84 ± 0.16	0.706 ± 0.017	0.774 ± 0.1	0.739 ± 0.045	0.735 ± 0.052	0.772 ± 0.065
100 µM, coculture fibroblast: HCPF	0.915 ± 0.025	0.9557 ± 0.0072	0.904 ± 0.013	0.851 ± 0.0094	0.825 ± 0.044	0.798 ± 0.043	0.802 ± 0.075	0.793 ± 0.087	0.77 ± 0.13
100 µM, coculture fibroblast: HHSteC	0.961 ± 0.037	0.853 ± 0.14	0.835 ± 0.15	0.907 ± 0.054	0.905 ± 0.031	0.902 ± 0.03	0.928 ± 0.024	0.933 ± 0.0097	0.9176 ± 0.0057
100 µM, coculture fibroblast: HMF	0.9853 ± 0.0013	0.9455 ± 0.0061	0.8722 ± 0.0029	0.8107 ± 0.0076	0.791 ± 0.031	0.771 ± 0.041	0.782 ± 0.055	0.786 ± 0.035	0.772 ± 0.025
100 µM, coculture fibroblast: HPFa	0.783 ± 0.12	0.816 ± 0.15	0.879 ± 0.053	0.897 ± 0.09	0.94 ± 0.083	0.764 ± 0.08	0.858 ± 0.024	0.757 ± 0.0074	0.76 ± 0.057
100 µM, coculture fibroblast: HUF	0.948 ± 0.026	0.934 ± 0.051	0.941 ± 0.066	0.904 ± 0.088	0.921 ± 0.11	0.794 ± 0.076	0.788 ± 0.1	0.863 ± 0.017	0.797 ± 0.12
100 µM, coculture fibroblast: Hs5	0.802 ± 0.1	0.97169 ± 0.00063	0.935 ± 0.029	0.897 ± 0.058	0.908 ± 0.069	0.895 ± 0.085	0.9 ± 0.085	0.887 ± 0.094	0.879 ± 0.089
100 µM, coculture fibroblast: Hs27A	0.7482 ± 0.0037	0.87 ± 0.033	0.808 ± 0.15	0.872 ± 0.063	0.732 ± 0.023	0.753 ± 0.051	0.891 ± 0.044	0.71 ± 0.02	0.9 ± 0.04
100 µM, coculture fibroblast: Hs343T	0.85 ± 0.051	0.931 ± 0.0066	0.832 ± 0.021	0.744 ± 0.015	0.692 ± 0.019	0.654 ± 0.032	0.678 ± 0.043	0.702 ± 0.03	0.73 ± 0.028
100 µM, coculture fibroblast: WS1	0.885 ± 0.0028	0.8256 ± 0.0043	0.818 ± 0.005	0.773 ± 0.015	0.736 ± 0.037	0.755 ± 0.033	0.766 ± 0.021	0.779 ± 0.0083	0.794 ± 0.011

Reference: the supplement of paper PMC6078165
